This is an account of results in US9173935B2, “Phospholipid drug analogs” (Telormedix SA, priority 2010, dated 2015).

Read-outs that look alike come from different tables or passages of the source.

The conditions of this data set: human, plasma, 4.16 μM.

With `CCN(CC)CC(=O)Nc1c(C)cccc1C` [Lidocaine, reference compound], the “% remaining” value runs as follows: (0 h) 100%; (1 h) 107.1 ± 7.7%; (5 h) 105.1 ± 3.3%.
